This passage reports binding results from publication PMC7360973.

By UniProt entry, the sequences of proteins in these tests, tags left out.
UniProt P11142: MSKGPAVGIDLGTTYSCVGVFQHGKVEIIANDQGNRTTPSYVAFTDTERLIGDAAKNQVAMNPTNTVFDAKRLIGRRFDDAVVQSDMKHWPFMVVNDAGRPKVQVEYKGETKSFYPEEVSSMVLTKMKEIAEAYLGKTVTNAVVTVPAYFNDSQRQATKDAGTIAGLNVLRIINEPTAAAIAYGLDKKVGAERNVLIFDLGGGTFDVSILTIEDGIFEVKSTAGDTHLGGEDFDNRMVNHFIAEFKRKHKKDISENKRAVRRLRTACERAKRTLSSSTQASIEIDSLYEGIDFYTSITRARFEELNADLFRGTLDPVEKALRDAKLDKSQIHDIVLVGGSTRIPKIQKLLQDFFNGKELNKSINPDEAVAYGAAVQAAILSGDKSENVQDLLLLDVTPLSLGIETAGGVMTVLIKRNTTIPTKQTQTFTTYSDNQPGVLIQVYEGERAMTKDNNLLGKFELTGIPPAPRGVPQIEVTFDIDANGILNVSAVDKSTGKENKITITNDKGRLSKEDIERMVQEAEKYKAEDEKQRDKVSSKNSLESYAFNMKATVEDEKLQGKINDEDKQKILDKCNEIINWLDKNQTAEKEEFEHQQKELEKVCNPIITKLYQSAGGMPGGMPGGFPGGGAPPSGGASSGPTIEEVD

No constants are given. Whether binding was seen depends on the method and setting.

Assay [1] concerns the target T1, Hsf1 peptide G204‐N214‐C_SSS (human).
T1 sequence (peptide, fluorescein-5-maleimide on the C-terminal cysteine): GVKRKSPSMSNC
Kind of assay: fluorescence polarisation; fluorescein-labelled peptide at 1 μM titrated with Hsc70 (0–60 μM), 2 h at 25°C, HKM150 buffer (25 mM HEPES/KOH pH 7.6, 150 mM KCl, 5 mM MgCl2); Hsc70 concentrated in the presence of 1 mM ATP; quadratic fit; both purified. Background: In fluorescence polarisation assays a small probe gives low polarisation when free and higher when bound to something large.

Assay [2] addresses T2, Hsf1 peptide N200‐K208‐C_SSS (human).
T2 sequence (peptide, fluorescein-5-maleimide on the C-terminal cysteine): NRSSGSKRKC
Described as above.

On to “Human Hsc70 (HSPA8) (from UniProt P11142 1-646)”, for which the binding result in assay [1] and in assay [2] was “no binding (tested: 0–60 μM Hsc70)” in each case.
